The text below walks through data of the supplement of paper PMC9233669.

The subject of data set [1] is biotinyl-Trp-oxazolone. Briefly: self-aminoacylation, catalytic enhancement (BWO) (fold over background); higher = more active; k-Seq, kA / k0A0; sequences stand for … in GGGAAUGGAUCCACAUCUACGAAUUC…UUCACUGCAGACUUGACGAAGCUG
An outline of the steps: (§1)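 Mutagenized RNA pools with a 21-nt variable region (0.43 μM) were reacted with each biotinyl-aminoacyl-oxazolone at 2–1250 μM for 90 minutes at room temperature, in 50 μL HEPES/NaCl/KCl/MgCl2/CaCl2 buffer containing 5% acetonitrile at pH 6.9–7.0. RNA captured on streptavidin was quantified by triplicate qPCR and by Illumina sequencing. The fraction reacted for each sequence was fit to a pseudo-first-order model with bootstrapping, and catalytic enhancement is the median kA divided by the uncatalyzed rate, taken as the low-activity peak of a bimodal Gaussian fit.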

Data set [2] concerns biotinyl-Met-oxazolone. Briefly: self-aminoacylation, catalytic enhancement (BMO) (fold over background); higher = more active; k-Seq, kA / k0A0; sequences stand for … in GGGAAUGGAUCCACAUCUACGAAUUC…UUCACUGCAGACUUGACGAAGCUG
The method, boiled down: as §1

For data set [3], the system named is biotinyl-Leu-oxazolone. The experiment in a line: self-aminoacylation, catalytic enhancement (BLO) (fold over background); higher = more active; k-Seq, kA / k0A0; sequences stand for … in GGGAAUGGAUCCACAUCUACGAAUUC…UUCACUGCAGACUUGACGAAGCUG
An outline of the steps: as §1

For data set [4], the system named is biotinyl-Val-oxazolone. The experiment in a line: self-aminoacylation, catalytic enhancement (BVO) (fold over background); higher = more active; k-Seq, kA / k0A0; sequences stand for … in GGGAAUGGAUCCACAUCUACGAAUUC…UUCACUGCAGACUUGACGAAGCUG
An outline of the steps:
as §1

The test system of data set [5] is biotinyl-Phe-oxazolone. Briefly: self-aminoacylation, catalytic enhancement (BFO) (fold over background); higher = more active; k-Seq, kA / k0A0; sequences stand for … in GGGAAUGGAUCCACAUCUACGAAUUC…UUCACUGCAGACUUGACGAAGCUG
An outline of the steps: as §1

The test system of data set [6] is biotinyl-Ile-oxazolone. The experiment in a line: self-aminoacylation, catalytic enhancement (BIO) (fold over background); higher = more active; k-Seq, kA / k0A0; sequences stand for … in GGGAAUGGAUCCACAUCUACGAAUUC…UUCACUGCAGACUUGACGAAGCUG
An outline of the steps:
as §1

Variants at the background level are over-represented here.

For “CUACUUCAAACAAUCGGUCGU [Fam1A.1 aminoacylation ribozyme variant]”, the self-aminoacylation was found to be 10.3 in data set [1]; 1.29 in data set [2]; 1.58 in data set [3]; 1.29 in data set [4]; 16.3 in data set [5]; 1.1 in data set [6].

For “CCACACGUCAAGCAAUUGGUC [Fam1B.1 aminoacylation ribozyme variant]”, the self-aminoacylation in data set [1] was found to be 1.05; in data set [2] it was 0.989; in data set [3] it was 0.951; in data set [4] it was 1.07; in data set [5] it was 0.752; in data set [6] it was 0.961.

Consider “CCACACUUCGCGCAAUCGGUC [Fam1B.1 aminoacylation ribozyme variant]”, for which the self-aminoacylation came to 2.77 in data set [1]; 1.68 in data set [2]; 2.41 in data set [3]; 2.51 in data set [4]; 10.5 in data set [5]; 2.21 in data set [6].

As to “AUGUUUGCUAAUAGGCGCAAG [Fam3.1 aminoacylation ribozyme variant]”, the self-aminoacylation in data set [1] amounted to 1.72; in data set [2], 0.784; in data set [3], 0.692; in data set [4], 0.869; in data set [5], 1.08; in data set [6], 1.17.

Consider “AAGUCUGCUAAUAGUAGCAAG [Fam3.1 aminoacylation ribozyme variant]”, for which the self-aminoacylation is 1.67 in data set [1]; 1.24 in data set [2]; 1.44 in data set [3]; 1.08 in data set [4]; 1.42 in data set [5]; 0.968 in data set [6].

As for “AUUACCCUAGUCAUCGAGCGA [Fam2.1 aminoacylation ribozyme variant]”, the self-aminoacylation was 1.21 in data set [1]; 1.38 in data set [2]; 1.2 in data set [3]; 1.32 in data set [4]; 0.894 in data set [5]; 1.3 in data set [6].

For “CCACUUCAAACCAUCGGUCUG [Fam1A.1 aminoacylation ribozyme variant]”, the self-aminoacylation stood at 1.16 in data set [1]; 0.947 in data set [2]; 1.24 in data set [3]; 1.29 in data set [4]; 1.49 in data set [5]; 1.31 in data set [6].

In the case of “CAGUUUGCUAAUAGUCGCAAU [Fam3.1 aminoacylation ribozyme variant]”, the self-aminoacylation was found to be 1.47 in data set [1]; 1.38 in data set [2]; 1.71 in data set [3]; 1.67 in data set [4]; 2 in data set [5]; 2.06 in data set [6].

As to “AUCCACCUAGGUCAUCGGGGG [Fam2.2 aminoacylation ribozyme variant]”, the self-aminoacylation in data set [1] was 4.13; in data set [2] it was 3.97; in data set [3] it was 5.3; in data set [4], 2.77; in data set [5] it was 2.86; in data set [6], 4.14.

In the case of “AUUCACCUCGGUCAUCGGCUG [Fam2.2 aminoacylation ribozyme variant]”, the self-aminoacylation stood at 2.02 in data set [1]; 1.75 in data set [2]; 1.96 in data set [3]; 2.65 in data set [4]; 8.33 in data set [5]; 1.87 in data set [6].

“CUAUUUCAAACAAUCGGUCAG [Fam1A.1 aminoacylation ribozyme variant]”: the self-aminoacylation turned out to be 0.73 in data set [1]; 0.686 in data set [2]; 0.614 in data set [3]; 0.619 in data set [4]; 1.35 in data set [5]; 0.654 in data set [6].

For “AAGUUUGCUAAUAGCUGCAAG [Fam3.1 aminoacylation ribozyme variant]”, the self-aminoacylation in data set [1] was 0.5; in data set [2], 0.59; in data set [3], 0.59; in data set [4], 0.663; in data set [5] it was 0.88; in data set [6] it was 0.599.

Regarding “AAGUUUGCUAUUAGUGGCAAG [Fam3.1 aminoacylation ribozyme variant]”, the self-aminoacylation in data set [1] was determined as 0.71; in data set [2], 0.895; in data set [3] it was 0.589; in data set [4], 0.663; in data set [5] it was 0.741; in data set [6] it was 0.804.

“AAGUUUCCUAAUAAUCGCAAG [Fam3.1 aminoacylation ribozyme variant]”: the self-aminoacylation turned out to be 0.471 in data set [1]; 0.705 in data set [2]; 0.923 in data set [3]; 0.814 in data set [4]; 1.11 in data set [5]; 1.08 in data set [6].

Consider “AUUACCCUGGUCAUAGAAUGA [Fam2.1 aminoacylation ribozyme variant]”, for which the self-aminoacylation in data set [1] was 0.465; in data set [2] it was 0.804; in data set [3], 0.883; in data set [4], 0.773; in data set [5], 1.15; in data set [6], 0.846.

With “CUACUUGUAACAAUCGGUCUG [Fam1A.1 aminoacylation ribozyme variant]”, the self-aminoacylation in data set [1] amounted to 0.573; in data set [2] it was 0.806; in data set [3] it was 0.678; in data set [4] it was 0.658; in data set [5], 0.824; in data set [6], 0.651.

As for “CUACUUCAUACAAGCGGUCUG [Fam1A.1 aminoacylation ribozyme variant]”, the self-aminoacylation in data set [1] turned out to be 0.774; in data set [2], 0.734; in data set [3] it was 0.734; in data set [4], 0.942; in data set [5], 1.07; in data set [6] it was 0.791.

For the sequence “CUACUUCAAACAAUGGGUCUU [Fam1A.1 aminoacylation ribozyme variant]”, the self-aminoacylation is 1.14 in data set [1]; 0.843 in data set [2]; 0.7 in data set [3]; 0.956 in data set [4]; 0.668 in data set [5]; 0.964 in data set [6].

Take “AAGUUUGAUAAUAAUCGCAAG [Fam3.1 aminoacylation ribozyme variant]”: the self-aminoacylation in data set [1] was 1.05; in data set [2], 0.852; in data set [3], 0.821; in data set [4] it was 0.77; in data set [5], 1.12; in data set [6] it was 0.978.

With “AUUCCCCUAGGACAUCGGGUG [Fam2.2 aminoacylation ribozyme variant]”, the self-aminoacylation turned out to be 8.25 in data set [1]; 7.14 in data set [2]; 9.47 in data set [3]; 6.82 in data set [4]; 44.8 in data set [5]; 6.12 in data set [6].

In the case of “AUUCACCUAGGUGAUAGGGUG [Fam2.2 aminoacylation ribozyme variant]”, the self-aminoacylation in data set [1] is 1.64; in data set [2], 1.32; in data set [3] it was 1.58; in data set [4], 1.26; in data set [5] it was 1.4; in data set [6] it was 1.29.

Take “AUUACCCUGCUCCUCGAGUGA [Fam2.1 aminoacylation ribozyme variant]”: the self-aminoacylation in data set [1] was 1.65; in data set [2], 1.62; in data set [3] it was 1.69; in data set [4] it was 1.12; in data set [5], 1.31; in data set [6], 1.08.

As for “CCACAUUUCAAGCAAUCGGUA [Fam1B.1 aminoacylation ribozyme variant]”, the self-aminoacylation in data set [1] is 1.25; in data set [2] it was 1.45; in data set [3], 1.57; in data set [4], 1.64; in data set [5], 0.971; in data set [6] it was 1.75.

As for “CCACACUUCAAGAAAUCAGUC [Fam1B.1 aminoacylation ribozyme variant]”, the self-aminoacylation amounted to 1.55 in data set [1]; 0.443 in data set [2]; 0.561 in data set [3]; 0.678 in data set [4]; 4.56 in data set [5]; 0.727 in data set [6].

On to “AAGUUUGCUAAUACUCGCAGG [Fam3.1 aminoacylation ribozyme variant]”, for which the self-aminoacylation in data set [1] worked out at 0.766; in data set [2] it was 0.655; in data set [3] it was 0.977; in data set [4] it was 0.709; in data set [5] it was 0.89; in data set [6] it was 0.748.
